This is an account of results in patent US20210315826A1, “NATURAL FLUORESCENT POLYDEDRAL AMINO ACID CRYSTALS FOR EFFICIENT ENTRAPMENT AND SYSTEMIC DELIVERY OF HYDROPHOBIC SMALL MOLECULES” (CORNELL UNIVERSITY, priority 2018, published 2021).

Series [1] in a line: Microscopy (optical, SEM, CLSM) observation of entrapment inside L-His crystals. Type of series: physicochemical. The note with it: SEM and CLSM, crystals collected after 3 hours.
The nature of series [2]: Fluorescence lifetime of amino acid crystals (TCSPC). The series is classed as physicochemical. The note with it: for a1 (%) / a2 (%) / τ1 (ns) / τ2 (ns): bi-exponential fit, crystals at room temperature; for Mean lifetime (ns): weighed mean lifetime of crystals, ((a1×τ1)+(a2×τ2))/(a1+a2).

Some entries repeat one wording, which the source may state once for all of them.

Regarding `CC(/C=C/C=C(C)/C=C/C(=O)O)=C\C=C\C=C(C)\C=C\C=C(C)\C=C\C(=O)O` (stereo in doubt) [norbixin], the “Entrapment inside the L-His crystals observed by microscopy” value in series [1] is “not observed entrapped inside the L-His crystals”.
`NC(=O)C[C@H](N)C(=O)O` [L-Asparagine, L-asparagine]: in series [2], the “a1 (%)” value came out at 87.39%, the “a2 (%)” value was 12.61%, the “τ1 (ns)” value is on record as 0.9 ns and the “τ2 (ns)” value is reported as 36.40 ns. In series [2], the “Mean lifetime (ns)” value is recorded as 5.38 ns.
As to `NC(=O)CC[C@H](N)C(=O)O` [L-Glutamine, L-glutamine], in series [2], the “a1 (%)” value turned out to be 77.93%, the “a2 (%)” value is recorded as 22.06%, the “τ1 (ns)” value is 0.85 ns and the “τ2 (ns)” value came to 8.49 ns. Moreover, the “Mean lifetime (ns)” value in series [2] amounted to 2.53 ns.
Consider `N[C@@H](Cc1c[nH]cn1)C(=O)O` [L-Histidine, L-histidine], for which, in series [2], the “a1 (%)” value is 56.51%, the “a2 (%)” value amounted to 43.48%, the “τ1 (ns)” value worked out at 0.67 ns and the “τ2 (ns)” value is 4.19 ns. Also, the “Mean lifetime (ns)” value in series [2] came out at 2.20 ns.
As to `CC[C@H](C)[C@H](N)C(=O)O` [L-Isoleucine, L-isoleucine], in series [2], the “a1 (%)” value was determined as 59.75%, the “a2 (%)” value is on record as 40.25%, the “τ1 (ns)” value stood at 0.79 ns and the “τ2 (ns)” value amounted to 5.69 ns. For the same molecule, the “Mean lifetime (ns)” value in series [2] is listed as 2.76 ns.
The corresponding values for `CSCC[C@H](N)C(=O)O` [L-Methionine, L-methionine] are 66.54%, 33.46%, 1.25 ns, 9.19 ns and 3.91 ns.
As to `C[C@@H](O)[C@H](N)C(=O)O` [L-Threonine, L-threonine], in series [2], the “a1 (%)” value stood at 61.02%, the “a2 (%)” value was 21.07%, the “τ1 (ns)” value is 1.31 ns and the “τ2 (ns)” value was determined as 19.46 ns. Further, the “Mean lifetime (ns)” value in series [2] came out at 4.90 ns.
As for `CC(C)[C@H](N)C(=O)O` [L-Valine, L-valine], in series [2], the “a1 (%)” value was 9.57%, the “a2 (%)” value was 90.42%, the “τ1 (ns)” value worked out at 5.02 ns and the “τ2 (ns)” value worked out at 6.68 ns. Further, the “Mean lifetime (ns)” value in series [2] was found to be 6.52 ns.
In the case of `CCN(CC)c1ccc2nc3c4ccccc4c(=O)cc-3oc2c1` [Nile red], the “Entrapment inside the L-His crystals observed by microscopy” value in series [1] is listed as “observed inside the crystals”.
For the molecule `c1cc2ccc3cccc4ccc(c1)c2c34` [pyrene], the “Entrapment inside the L-His crystals observed by microscopy” value in series [1] was “observed inside the crystals”.
Regarding `CC1=C(/C=C/C(C)=C/C=C/C(C)=C/C=C/C=C(C)/C=C/C=C(C)/C=C/C2=C(C)CCCC2(C)C)C(C)(C)CCC1` [β-carotene], the “Entrapment inside the L-His crystals observed by microscopy” value in series [1] was “observed inside the crystals”.
For the molecule fluorescein isothiocyanate [FITC], the “Entrapment inside the L-His crystals observed by microscopy” value in series [1] is “not observed entrapped inside the L-His crystals”.
